# Measured values taken from PubChem BioAssay AID248 (DTP/NCI, 2004).
# The list is a part of this screen's results and no random one: it is rich in T/C values a quarter to a half above the control, in often repeated tests (any T/C) and in doses without a T/C. Other doses and runs of a compound stand elsewhere. T/C gives the treated animals as a percentage of the vehicle group. Some doses have a count of surviving animals in place of a T/C: the source files T/C as zero there, which appears to mark a toxic dose or a test without result, not a measured value. Some doses without a T/C left all or most animals alive at the check, yet need not have been tolerated: survival well below the control is almost never listed, so the zero probably covers shortened survival too. Survivors were counted at the toxicity check, usually on the fifth day, unless a day is given; later deaths do not show. Schedule codes are those of the source, taken here to give the interval after Q, in days (D) or hours (H), and the number of doses after X. For survival time, the PubChem record calls one and a half times the control and up active, and a quarter to a half above the control has no call in these data; cut-offs in other NCI protocols can differ. Some T/C values are followed by the survivors on the day toxicity was checked, most often the fifth; where none is given, no animal had died by that day.
# System: L1210 leukemia ip in BDF1 mice, survival T/C
# Experiment: NCI In Vivo Anticancer Drug Screen. Data for tumor model L1210 Leukemia (intraperitoneal) in B6D2F1 (BDF1) mice
# Conditions: T/C endpoint: mean survival time, higher T/C = longer survival
# [1] = dose: 200.0 mg/kg/injection, schedule: Q04DX003 (ip), vehicle: saline
# [2] = dose: 400.0 mg/kg/injection, schedule: Q04DX003 (ip), vehicle: saline
# [3] = dose: 100.0 mg/kg/injection, schedule: Q04DX003 (ip), vehicle: saline with Tween-80
# [4] = dose: 200.0 mg/kg/injection, schedule: Q04DX003 (ip), vehicle: saline with Tween-80
# [5] = dose: 400.0 mg/kg/injection, schedule: Q04DX003 (ip), vehicle: saline with Tween-80
smiles,measurement,setting,value
O=C(Nc1ccc(Cl)cc1Cl)Nc1ccc(Cl)cc1Cl,survivor count,"dose: 400.0 mg/kg/injection, schedule: Q04DX002 (ip), vehicle: Klucel (hydroxypropylcellulose) (HPC)",3 of 3
OCC(I)C(CO)[n+]1ccccc1 (stereo not drawn),survivor count,"dose: 100.0 mg/kg/injection, schedule: Q04DX003 (ip), vehicle: saline",0 of 6
same,survivor count,[1],0 of 6
same,survivor count,[2],0 of 6
CC(=O)C1C(=O)C(=O)OC1C (stereo not drawn),survivor count,"dose: 400.0 mg/kg/injection, schedule: Q04DX003 (ip), vehicle: alcohol",0 of 6
Nc1cccc(C(F)(F)F)c1,survivor count,"dose: 200.0 mg/kg/injection, schedule: Q01DX009 (ip), vehicle: saline",3 of 6
same,survivor count,"dose: 400.0 mg/kg/injection, schedule: Q01DX009 (ip), vehicle: saline",0 of 6
COc1cc2c(c(OC)c1OC)-c1ccc(O)c(=O)cc1[C@@H](NC(C)=O)CC2,survivor count,"dose: 300.0 mg/kg/injection, schedule: Q01DX001 (ip), vehicle: other",0 of 6
COc1nc(-c2ccccc2)cn[n+]1C,T/C,"dose: 50.0 mg/kg/injection, schedule: Q01DX001 (ip), vehicle: saline with Tween-80",127 % of control [5 of 6 alive]
same,survivor count,"dose: 100.0 mg/kg/injection, schedule: Q01DX001 (ip), vehicle: saline with Tween-80",1 of 6
same,survivor count,"dose: 200.0 mg/kg/injection, schedule: Q01DX001 (ip), vehicle: saline with Tween-80",0 of 6
CC(C)(NC(=O)N(CCCl)N=O)C(=O)O,T/C,"dose: 54.0 mg/kg/injection, schedule: Q01DX001 (ip), vehicle: saline with Tween-80",129 % of control
same,T/C,"dose: 80.0 mg/kg/injection, schedule: Q01DX001 (ip), vehicle: saline with Tween-80",132 % of control
COc1ccc([N+](=O)[O-])cc1NS(=O)(=O)c1c(C)cc(C)cc1C,survivor count,"dose: 400.0 mg/kg/injection, schedule: Q01DX009 (ip), vehicle: saline with Tween-80",6 of 6
COc1cccn(C/C=C(\C)CCC=C(C)C)c1=O,survivor count,[3],2 of 6
same,survivor count,[4],3 of 6
same,survivor count,[5],1 of 6
CC1C(c2ccccc2)OCCN1C (stereo not drawn),survivor count,"dose: 400.0 mg/kg/injection, schedule: Q01DX001 (ip), vehicle: saline",2 of 4
CCOC(=O)/C(C(N)=O)=C(/C)C=C(C)C,survivor count,"dose: 40.0 mg/kg/injection, schedule: Q01DX001 (ip), vehicle: acetone",0 of 6
same,survivor count,"dose: 75.0 mg/kg/injection, schedule: Q01DX001 (ip), vehicle: acetone",0 of 6
same,survivor count,"dose: 150.0 mg/kg/injection, schedule: Q01DX001 (ip), vehicle: acetone",0 of 6
same,survivor count,"dose: 300.0 mg/kg/injection, schedule: Q01DX001 (ip), vehicle: acetone",0 of 6
C=C(C(=O)OC)C(C(=O)OC)=C(N1CCCCC1)N1CCCCC1,survivor count,"dose: 400.0 mg/kg/injection, schedule: Q04DX002 (ip), vehicle: saline with Tween-80",0 of 3
CSC(=N)N(C)Cc1ccccc1,survivor count,"dose: 150.0 mg/kg/injection, schedule: Q01DX001 (ip), vehicle: saline",0 of 6
same,survivor count,"dose: 300.0 mg/kg/injection, schedule: Q01DX001 (ip), vehicle: saline",0 of 6
O=S(=O)(O)c1ccc(CCCCCCCl)cc1,survivor count,"dose: 400.0 mg/kg/injection, schedule: Q04DX002 (ip), vehicle: saline",3 of 3
BrCc1ccc(Br)cc1,survivor count,"dose: 400.0 mg/kg/injection, schedule: Q01DX001 (ip), vehicle: carboxymethylcellulose (CMC)",4 of 4
CN(C)/C=N/N1CCCCCC1,survivor count,[1],1 of 6
same,survivor count,[2],1 of 6
Cc1ccc(S(=O)(=O)Nc2cc(Cl)c(I)cc2Cl)cc1,survivor count,[3],6 of 6
CCCCCCCCCCC(=O)N1CCOCC1,survivor count,[3],6 of 6
same,survivor count,[4],6 of 6
same,survivor count,[5],0 of 6
